These results are taken from PMC7862700.

This is a selection; strong and weak results do not stand in their true shares. For part of these data: At the low end of the ranking the order means little. The list shows a part of the results. For part of these data: Construct or isoform of the protein are uncertain.

Experiment in all cases: DAPPL (digital affinity profiling via proximity ligation, sequencing)
Common to all, as to details: 10 mM Tris-HCl pH 7.5, 50 mM NaCl, 1 mM DTT, 4% glycerol, room temperature, 30 min; GST-TFs on glutathione beads, 16-mer random dsDNA library, 0.1% …; high values mean tight binding; double strand, one strand shown; scale: fold enrichment (6-mer frequency, TF over GST control)

For one assay, the target named is T1, GABPA (UniProt Q06546).
T1 sequence: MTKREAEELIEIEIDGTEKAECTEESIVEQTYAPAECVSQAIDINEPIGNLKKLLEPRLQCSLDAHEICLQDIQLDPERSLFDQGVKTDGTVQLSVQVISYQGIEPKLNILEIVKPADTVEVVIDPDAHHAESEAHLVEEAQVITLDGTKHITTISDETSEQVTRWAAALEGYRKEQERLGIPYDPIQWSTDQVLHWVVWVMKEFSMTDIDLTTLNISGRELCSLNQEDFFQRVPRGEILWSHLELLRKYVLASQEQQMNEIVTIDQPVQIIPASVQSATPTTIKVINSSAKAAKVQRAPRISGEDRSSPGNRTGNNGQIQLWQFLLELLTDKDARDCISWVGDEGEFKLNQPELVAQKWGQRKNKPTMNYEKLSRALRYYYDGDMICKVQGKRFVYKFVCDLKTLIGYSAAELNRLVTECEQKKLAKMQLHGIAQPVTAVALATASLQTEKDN

For another assay, the target named is T2, ETS1 (UniProt P14921).
T2 sequence: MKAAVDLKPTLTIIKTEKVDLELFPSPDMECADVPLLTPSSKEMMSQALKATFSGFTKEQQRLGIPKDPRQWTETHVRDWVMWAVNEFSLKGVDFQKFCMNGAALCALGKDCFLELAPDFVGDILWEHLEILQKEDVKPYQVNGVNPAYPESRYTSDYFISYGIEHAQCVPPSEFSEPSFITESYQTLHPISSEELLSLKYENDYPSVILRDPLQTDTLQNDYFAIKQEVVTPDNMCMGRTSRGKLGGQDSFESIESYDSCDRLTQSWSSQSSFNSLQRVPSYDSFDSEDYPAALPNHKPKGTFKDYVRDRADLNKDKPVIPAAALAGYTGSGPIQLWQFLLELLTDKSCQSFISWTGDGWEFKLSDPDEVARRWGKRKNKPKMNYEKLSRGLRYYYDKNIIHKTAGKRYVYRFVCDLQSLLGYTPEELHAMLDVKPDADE

For a further assay, the target named is T3, SPDEF (UniProt O95238).
T3 sequence: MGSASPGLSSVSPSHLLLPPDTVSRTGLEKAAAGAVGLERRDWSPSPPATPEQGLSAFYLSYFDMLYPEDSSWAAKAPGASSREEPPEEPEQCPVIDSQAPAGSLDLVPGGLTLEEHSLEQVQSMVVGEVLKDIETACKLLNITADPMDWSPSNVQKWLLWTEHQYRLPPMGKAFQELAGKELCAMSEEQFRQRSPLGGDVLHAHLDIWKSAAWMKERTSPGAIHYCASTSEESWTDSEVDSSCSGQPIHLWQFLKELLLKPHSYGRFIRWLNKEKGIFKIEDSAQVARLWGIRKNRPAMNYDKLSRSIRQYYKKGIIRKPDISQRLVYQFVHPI

With GTTTAC, the binding signal amounted to 1.19 in the assay with GABPA, 1.09 with ETS1 and 1.12 with SPDEF.
For the sequence ACTCGC, the binding signal in the assay with GABPA is 1.18; with ETS1, 1.13; with SPDEF, 0.934.
With CCTACA, the binding signal was determined as 1.33 in the assay with GABPA, 1.22 with ETS1 and 1.17 with SPDEF.
In the same order, the values of TCGCAC are 1.09, 1.15 and 1.05.
With TAATGC, the binding signal is 1.26 with GABPA, 1.22 with ETS1 and 1.17 with SPDEF.
For CTATCT, in that order: 1.34, 1.36 and 1.3.
For TATCGA, in that order: 1.32, 1.37 and 1.34.
In the same order, the values of AATAAG are 1.31, 1.28 and 1.26.
Consider AAGTCA, for which the values for the binding signal with GABPA, in the assay with ETS1 and with SPDEF were 1.15, 1.19 and 1.18, respectively.
For TCCTTG, in that order: 1.25, 1.4 and 1.48.
For ATACCT, in that order: 1.07, 1.11 and 1.04.
For the sequence CCACTT, the binding signal with GABPA was 1.81; with ETS1, 1.79; with SPDEF it was 1.69.
Turning to AATTGG, the binding signal worked out at 1.31 with GABPA, 1.43 with ETS1 and 1.31 in the assay with SPDEF.
CTACTT: the binding signal in the assay with GABPA turned out to be 1.72; with ETS1, 1.74; in the assay with SPDEF, 1.79.
In the same order, the values of ACGGCC are 1.12, 1.06 and 1.17.
For CTAACG, in that order: 1.09, 1.17 and 1.16.
For GTAACA, in that order: 1.05, 1.13 and 1.14.
Regarding TTATAC, the binding signal with GABPA is 1.39; in the assay with ETS1, 1.29; with SPDEF, 1.38.
For ATTGAA, in that order: 1.07, 1.1 and 1.07.
For TTATCA, in that order: 1.05, 1.11 and 0.984.
As for CTGCCC, the binding signal in the assay with GABPA worked out at 1.29; with ETS1, 1.32; with SPDEF, 1.23.
For TTGCGG, in that order: 1.21, 1.29 and 1.24.
For TCCTCT, in that order: 1.57, 1.6 and 1.58.
With ATCAGC, the binding signal is 0.958 in the assay with GABPA, 0.992 with ETS1 and 0.873 with SPDEF.
In the same order, the values of AAAAGG are 1.25, 1.13 and 1.07.
For GCCTAT, in that order: 1.21, 1.27 and 1.27.
For CATTTC, the binding signal is 1.64 with GABPA, 1.61 in the assay with ETS1 and 1.75 with SPDEF.
Take CCTAGA: the binding signal came out at 0.982 with GABPA, 0.919 in the assay with ETS1 and 1.01 in the assay with SPDEF.
In the same order, the values of GGTCCT are 0.954, 0.992 and 1.1.
In the same order, the values of CCATTT are 1.42, 1.27 and 1.21.
